Reference: the supplement of paper PMC8728848
The other results are listed elsewhere or left out.

Key:
Assay in all cases: glycan array binding signal (z-score within array); higher = stronger binding
Conditions in all cases: glycan notation: IUPAC condensed, linker removed
Fuc(a1-2)Gal = target: Fuc(a1-2)Gal
Summary of the method: (§1)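 Glycan array binding is given as a within-array Z-score, which can be read as non-binding when negative. The arrays, 3228 of them, came from the Consortium for Functional Glycomics database and were retained only where the protein sequence was available. Z-scores were averaged across arrays of the same protein sequence at different concentrations or buffers and across linkers.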

Fuc(a1-2)Gal(b1-3)GalNAc = target: Fuc(a1-2)Gal(b1-3)GalNAc
Summary of the method: as §1

[1] = target: Fuc(a1-2)Gal(b1-3)GalNAc(a1-3)[Fuc(a1-2)]Gal(b1-4)Glc
Summary of the method: as §1

[2] = target: Fuc(a1-2)Gal(b1-3)GalNAc(a1-3)[Fuc(a1-2)]Gal(b1-4)GlcNAc
Summary of the method: as §1

[3] = target: Fuc(a1-2)Gal(b1-3)GalNAc(b1-3)Gal
Summary of the method: as §1

[4] = target: Fuc(a1-2)Gal(b1-3)GalNAc(b1-3)Gal(a1-4)Gal(b1-4)Glc
Summary of the method: as §1

[5] = target: Fuc(a1-2)Gal(b1-3)GalNAc(b1-4)[Neu5Ac(a2-3)]Gal(b1-4)Glc
Summary of the method: as §1

Fuc(a1-2)Gal(b1-3)GlcNAc = target: Fuc(a1-2)Gal(b1-3)GlcNAc
Summary of the method: as §1

[6] = target: Fuc(a1-2)Gal(b1-3)GlcNAc(b1-2)Man(a1-3)[Fuc(a1-2)Gal(b1-3)GlcNAc(b1-2)Man(a1-6)]Man(b1-4)GlcNAc(b1-4)GlcNAc
Summary of the method: as §1

[7] = target: Fuc(a1-2)Gal(b1-3)GlcNAc(b1-2)Man(a1-3)[Fuc(a1-2)Gal(b1-3)GlcNAc(b1-2)Man(a1-6)]Man(b1-4)GlcNAc(b1-4)[Fuc(a1-6)]GlcNAc
Summary of the method: as §1

[8] = target: Fuc(a1-2)Gal(b1-3)GlcNAc(b1-3)Gal(b1-4)Glc
Summary of the method: as §1

[9] = target: Fuc(a1-2)Gal(b1-3)GlcNAc(b1-3)GalNAc
Summary of the method: as §1

[10] = target: Fuc(a1-2)Gal(b1-3)GlcNAc(b1-3)[Fuc(a1-2)Gal(b1-3)GlcNAc(b1-6)]GalNAc
Summary of the method: as §1

[11] = target: Fuc(a1-2)Gal(b1-3)GlcNAc(b1-3)[Gal(b1-4)GlcNAc(b1-6)]Gal(b1-4)Glc
Summary of the method: as §1

[12] = target: Fuc(a1-2)Gal(b1-3)GlcNAc(b1-3)[Neu5Ac(a2-6)Gal(b1-4)GlcNAc(b1-6)]Gal(b1-4)Glc
Summary of the method: as §1

[13] = target: Fuc(a1-2)Gal(b1-3)GlcNAc6S
Summary of the method: as §1

[14] = target: Fuc(a1-2)Gal(b1-3)[Fuc(a1-4)]GlcNAc
Summary of the method: as §1

[15] = target: Fuc(a1-2)Gal(b1-3)[Fuc(a1-4)]GlcNAc(b1-2)Man(a1-3)[Fuc(a1-2)Gal(b1-3)[Fuc(a1-4)]GlcNAc(b1-2)Man(a1-3)]Man(b1-4)GlcNAc(b1-4)GlcNAc
Summary of the method: as §1

[16] = target: Fuc(a1-2)Gal(b1-3)[Fuc(a1-4)]GlcNAc(b1-2)Man(a1-3)[Fuc(a1-2)Gal(b1-3)[Fuc(a1-4)]GlcNAc(b1-2)Man(a1-6)]Man(b1-4)GlcNAc(b1-4)[Fuc(a1-6)]GlcNAc(b1-4)[Fuc(a1-6)]GlcNAc
Summary of the method: as §1

[17] = target: Fuc(a1-2)Gal(b1-3)[Fuc(a1-4)]GlcNAc(b1-3)[Fuc(a1-3)[Gal(b1-4)]GlcNAc(b1-6)]Gal(b1-4)Glc
Summary of the method: as §1

[18] = target: Fuc(a1-2)Gal(b1-3)[Fuc(a1-4)]GlcNAc(b1-3)[Gal(b1-4)GlcNAc(b1-6)]Gal(b1-4)Glc
Summary of the method: as §1

[19] = target: Fuc(a1-2)Gal(b1-4)Fuc(a1-3)]GlcNAc(b1-2)Man(a1-3)[Fuc(a1-2)Gal(b1-4)[Fuc(a1-3)]GlcNAc(b1-2)Man(a1-6)]Man(b1-4)GlcNAc(b1-4)GlcNAc
Summary of the method: as §1

Fuc(a1-2)Gal(b1-4)Glc = target: Fuc(a1-2)Gal(b1-4)Glc
Summary of the method: as §1

Fuc(a1-2)Gal(b1-4)Glc6S = target: Fuc(a1-2)Gal(b1-4)Glc6S
Summary of the method: as §1

Fuc(a1-2)Gal(b1-4)GlcNAc = target: Fuc(a1-2)Gal(b1-4)GlcNAc
Summary of the method: as §1

[20] = target: Fuc(a1-2)Gal(b1-4)GlcNAc(b1-2)Man
Summary of the method: as §1

[21] = target: Fuc(a1-2)Gal(b1-4)GlcNAc(b1-2)Man(a1-3)[Fuc(a1-2)Gal(b1-4)GlcNAc(b1-2)Man(a1-6)]Man(b1-4)GlcNAc(b1-4)GlcNAc
Summary of the method: as §1

[22] = target: Fuc(a1-2)Gal(b1-4)GlcNAc(b1-2)Man(a1-3)[Fuc(a1-2)Gal(b1-4)GlcNAc(b1-2)Man(a1-6)]Man(b1-4)GlcNAc(b1-4)[Fuc(a1-6)]GlcNAc
Summary of the method: as §1

[23] = target: Fuc(a1-2)Gal(b1-4)GlcNAc(b1-2)[Fuc(a1-2)Gal(b1-4)GlcNAc(b1-4)]Man(a1-3)[Fuc(a1-2)Gal(b1-4)GlcNAc(b1-2)Man(a1-6)]Man(b1-4)GlcNAc(b1-4)GlcNAc
Summary of the method: as §1

[24] = target: Fuc(a1-2)Gal(b1-4)GlcNAc(b1-3)Gal(b1-4)GlcNAc
Summary of the method: as §1

B1: Epa11 (Candida glabrata) (protein)
chain: MGSSHHHHHHSSGLVPRGSHMASSNAPNYPVGCSPSVGTQLTPGLSLEVYAYPMDGNNGYCWNATYKDPEFPRSGYLKNKLLGKADGVVGPLNFLAKNKDCSPKVDTLPAGFNFPQPITVTNFTMVLFGYLAPKQSGKYTFKLLADDLLLLNLGATNAFDCCNREATKNNLGEFLAYNLWPNQDKNVTVYLEKGVYYPLRLFFNNRDGGSQLDFSYYFNDSPAPLTDFSGMFFSVPDGAECPARI
For B1, the “glycan array binding signal (z-score)” value (Fuc(a1-2)Gal) was -0.127, the “glycan array binding signal (z-score)” value (Fuc(a1-2)Gal(b1-3)GalNAc) was -0.261 and the “glycan array binding signal (z-score)” value [1] was -0.518. For the same binder, the “glycan array binding signal (z-score)” value [2] was -0.08, the “glycan array binding signal (z-score)” value [3] was 0.881 and the “glycan array binding signal (z-score)” value [4] was -0.421. The “glycan array binding signal (z-score)” value [5] was 0.012, the “glycan array binding signal (z-score)” value (Fuc(a1-2)Gal(b1-3)GlcNAc) was -0.425 and the “glycan array binding signal (z-score)” value [6] was 0.284. The “glycan array binding signal (z-score)” value [7] was 0.172, the “glycan array binding signal (z-score)” value [8] was -0.259 and the “glycan array binding signal (z-score)” value [9] was -0.178. The “glycan array binding signal (z-score)” value [10] was -0.092, the “glycan array binding signal (z-score)” value [11] was -0.245 and the “glycan array binding signal (z-score)” value [12] was -0.474. The “glycan array binding signal (z-score)” value [13] was -0.634, the “glycan array binding signal (z-score)” value [14] was -0.638 and the “glycan array binding signal (z-score)” value [15] was -0.183. For the same binder, the “glycan array binding signal (z-score)” value [16] was 0.154, the “glycan array binding signal (z-score)” value [17] was -0.783 and the “glycan array binding signal (z-score)” value [18] was -0.337. For the same binder, the “glycan array binding signal (z-score)” value [19] was 2.88, the “glycan array binding signal (z-score)” value (Fuc(a1-2)Gal(b1-4)Glc) was -0.83 and the “glycan array binding signal (z-score)” value (Fuc(a1-2)Gal(b1-4)Glc6S) was 0.065. For the same binder, the “glycan array binding signal (z-score)” value (Fuc(a1-2)Gal(b1-4)GlcNAc) was -0.601, the “glycan array binding signal (z-score)” value [20] was 0.705 and the “glycan array binding signal (z-score)” value [21] was -0.265. The “glycan array binding signal (z-score)” value [22] was 0.592, the “glycan array binding signal (z-score)” value [23] was 0.166 and the “glycan array binding signal (z-score)” value [24] was -0.92.
